No constants are given. Whether binding was seen depends on the method and setting. Some entries that bind do so weakly or less than the wild type.
How the values were obtained:
[1] = target: T1, proline rich domain of RGS9-2, amino acids 460-672 of human RGS9 (bait, plasmid pAS1-RGS9CT) (human) (UniProt O75916); test: yeast two-hybrid assay
T1 sequence: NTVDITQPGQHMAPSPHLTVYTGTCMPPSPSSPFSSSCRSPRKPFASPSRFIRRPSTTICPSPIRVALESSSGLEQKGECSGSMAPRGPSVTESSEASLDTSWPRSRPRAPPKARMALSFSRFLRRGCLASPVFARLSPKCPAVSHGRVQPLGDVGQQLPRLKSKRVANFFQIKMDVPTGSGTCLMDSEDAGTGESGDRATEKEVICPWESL

[2] = target: T2, evectin 1, shorter splice form lacking exon 2 (human) (UniProt Q9UF11); test: yeast two-hybrid assay
T2 sequence: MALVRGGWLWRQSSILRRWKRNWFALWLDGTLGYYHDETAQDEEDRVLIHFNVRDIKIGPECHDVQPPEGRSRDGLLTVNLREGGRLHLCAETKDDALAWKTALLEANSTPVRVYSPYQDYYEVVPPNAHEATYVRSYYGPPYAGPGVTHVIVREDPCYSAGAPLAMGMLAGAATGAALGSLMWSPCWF

B1: evectin 1, shorter splice form lacking exon 2 (protein)
chain: MALVRGGWLWRQSSILRRWKRNWFALWLDGTLGYYHDETAQDEEDRVLIHFNVRDIKIGPECHDVQPPEGRSRDGLLTVNLREGGRLHLCAETKDDALAWKTALLEANSTPVRVYSPYQDYYEVVPPNAHEATYVRSYYGPPYAGPGVTHVIVREDPCYSAGAPLAMGMLAGAATGAALGSLMWSPCWF
With B1 the binding [1] was “binds”.

B2: EVT ΔC27 (C terminal deletion mutant of evectin) (protein)
chain: MALVRGGWLWRQSSILRRWKRNWFALWLDGTLGYYHDETAQDEEDRVLIHFNVRDIKIGPECHDVQPPEGRSRDGLLTVNLREGGRLHLCAETKDDALAWKTALLEANSTPVRVYSPYQDYYEVVPPNAHEATYVRSYYGPPYAGPGVTHVIVREDPCYSAGA
B2 was tested, and the binding [1] was “binds”.

B3: RGS9 ΔC47 (C terminal deletion mutant of the RGS9-2 proline rich domain) (protein)
chain: NTVDITQPGQHMAPSPHLTVYTGTCMPPSPSSPFSSSCRSPRKPFASPSRFIRRPSTTICPSPIRVALESSSGLEQKGECSGSMAPRGPSVTESSEASLDTSWPRSRPRAPPKARMALSFSRFLRRGCLASPVFARLSPKCPAVSHGRVQPLGDVGQQLPRLKSKR
In the case of B3, the binding [2] is reported as “binds”.

B4: RGS9 ΔC70 (C terminal deletion mutant of the RGS9-2 proline rich domain) (protein)
chain: NTVDITQPGQHMAPSPHLTVYTGTCMPPSPSSPFSSSCRSPRKPFASPSRFIRRPSTTICPSPIRVALESSSGLEQKGECSGSMAPRGPSVTESSEASLDTSWPRSRPRAPPKARMALSFSRFLRRGCLASPVFARLSPKCPA
For B4, the binding [2] was “binds”.
